# Library screen at single concentrations

Measurements from “University of Dundee, Small-Polar-MMV Screening Library” (2021), ChEMBL document CHEMBL3988442.

Mtb cholesterol medium: 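Growth of Mycobacterium tuberculosis over 4 days (cholesterol / DPPC medium with tyloxapol); the read-out is not stated. Tested at 50 µM. Higher reads as more growth inhibition (inferred: compounds with an IC50 in retests scored well above the rest). Size under these conditions: about 69,000 compounds, about 370 of them at 50% or above in at least one test.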
Mtb glucose medium: 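Growth of Mycobacterium tuberculosis over 3 days (7H9 medium with glucose and tyloxapol); the read-out is not stated. Concentration: 50 µM. Direction is inferred from retests: higher values go with more growth inhibition. Of about 69,000 compounds tested this way, about 760 (1.1%) reached 50% or more in at least one test.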

Results are given as percent effect.
The record does not define 0% and 100%; most values in the screen are far below 50% and negative numbers occur (in some assays of this library far below -100).
This is an unselected part of the compounds tested.
Two or more numbers in one place are separate tests of the same structure; such repeats can differ widely.

structure | Mtb cholesterol medium | Mtb glucose medium
Cc1ccc(NC(=O)c2coc(C)n2)c(C)c1 | -9.264 | 6.62
CCc1cc(N(C)Cc2ccnc(C)c2)n2nc(C)c(C)c2n1 | -2.654 | -8.359
O=C(NCN1CCc2ccccc2C1)c1cnccn1 | -6.493 | -4.565
Cn1cc(C2CC(=O)NC23CCN(CC2CC2)CC3)cn1.O=C(O)C(F)(F)F (stereo unspecified) | 11.16 | 21.75
CN1CCN(CC2CC2)C(=O)C12CCN(C(=O)c1cnccn1)CC2 | 6.731 | 4.174 and -17.17
COc1ccc(Cl)cc1NC(=O)CCC1CCCN(Cc2ncon2)C1 (stereo unspecified) | 7.637 and 4.86 | 6.663
CC(C)N(C)CC(=O)NCC(Cc1ccc(F)cc1)C(N)=O (stereo unspecified) | 2.574 | 10.83
CC1CCN(c2cc(NC(=O)C3CC3)ncn2)CC1 | 18.19 | 17.53
CN(CCCc1n[nH]c(N)c1C#N)C(=O)NC1CC1 | 11.85 | 3.356
O=C(O)c1cnc2c(cnn2C2CCCC2)c1 | 9.383 | 5.257
Cc1ccc(C2(CN3CCN(Cc4cn(C)nc4C)CC3)CC2)cc1.Cl | 4.164 and 3.583 | -11.22
CN1CCC2(CCCN(C(=O)c3cncn3C)C2)CC1.O=C(O)C(F)(F)F | 6.528 | -16.43 and -6.159
Cc1nnc(CCNC(=O)Nc2ccc(S(C)(=O)=O)cc2)[nH]1 | -46.21 | -3.646
CC(CC(=O)c1ccccc1)NC(=O)c1ccon1 (stereo unspecified) | 10.95 | 18.22
Cc1cnc(NCc2cnn(C)c2)nc1-c1cnn(C)c1 | 18.53 | -3.594 and 2.229
Cc1nc(CNC(=O)CC2C(=O)NCCN2CCC(C)C)n[nH]1 (stereo unspecified) | 1.434 and -16.04 | -15.8
CSCc1nc(CNC(=O)C2CCCN(CC(N)=O)C2)cs1 (stereo unspecified) | -9.541 | -30.76
CS(=O)(=O)CCSc1nnc(Cc2ccccc2F)o1 | -7.005 and 11.47 | 29.31
COc1ccc(Cl)cc1CC(=O)N1CCN(CC(C)O)CC1 (stereo unspecified) | -11.08 | -9.396
OCCNc1nccc(-c2c[nH]nc2-c2ccncc2)n1 | -20.54 | -15.31
O=c1[nH]nc(CNc2ncc(Cl)cn2)[nH]1 | -49.06 | -9.42
CSc1ccccc1C(=O)NCc1cc2n(n1)CCCN(CC(C)C)C2 | -45.79 | 8.194 and -30.69
NC(=O)c1ccc(NC(=O)c2ccncc2F)cn1 | -10.65 | -9.698
CCn1ccnc1CN(C)C1CCCN(Cc2ccccc2F)C1 (stereo unspecified) | -14.12 and 0.2467 | 18.3
Cc1cccc(CN2CCC(c3nccn3CC(N)=O)CC2)n1 | -18.9 | -13.95 and -5.722
CC(C)[C@@H](N)C(=O)NCc1cccnc1N1CCc2ccccc2C1 | 24.76 and -9.649 | 6.619
O=C(CN1CCOCC1)N(c1ccccc1)c1ccccc1 | 7.539 | 5.328
Cc1nnc(CCNC(=O)C(c2ccc(F)cc2)N(C)C)[nH]1 (stereo unspecified) | -1.104 and -5.717 | 19.08
[H][C@@]12C[C@H](C(=O)Nc3ccccc3)[C@@]([H])(CN(Cc3cccnc3)C1)O2 | 7.054 and -4.722 | -27.09
CC(=O)N[C@@H]1CN(C(=O)c2cnccn2)C[C@H]1c1ccc(C)cc1 | -5.219 | 20.81
COc1ccc(C2=CCN(C(=O)C3CCN(C)C(=O)C3)CC2)cc1 (stereo unspecified) | 19.73 | 17.61
CCCc1cnc(C)nc1N1CCC2(CCCO2)CC1 | -11.65 and -1.845 | -7.459
COCCS(=O)(=O)NC(C)c1ccc(-n2nc(C)cc2C)cc1 (stereo unspecified) | -7.302 | -18.64
COc1ccccc1CC(=O)NS(=O)(=O)c1ccc(NC(C)=O)cc1 | -11.05 | -2.566
[H][C@]12CC[C@]([H])(CN(C(=O)CCn3cc(Cl)cn3)C1)N(CCOC)C2 | 2.838 | 6.532
CN(C)C(=O)CN1CCC2(CCCN(Cc3ccoc3)C2)C1=O (stereo unspecified) | -25.22 and 2.998 | -21.53
CCC(=O)N(c1ccc(C(=O)OC)cc1C)C(C)C | -21.95 | -25.63
CCc1nc(C(=O)N2CCOCC2)nn1-c1ccccc1Cl | 0.4506 | 17.1
CC(=O)N1CCCN(Cc2csc(-c3ncccn3)n2)CC1 | -10.92 | -6.29 and -16.72
CN(C)CCOCc1cncc2c1CCN(C(=O)C1CCOCC1)C2.O=C(O)C(F)(F)F.O=C(O)C(F)(F)F | 8.196 | 18.75
Cc1ncsc1-c1nnc(C2CCN(Cc3ccc(F)cc3)CC2)o1 | 2.749 | 11.35
Cc1nc(CN2CCCC(NCc3c(C)nc4sccn34)C2)no1 (stereo unspecified) | -22.3 | -16.39
O=C1NCC2(CCCN(C(=O)c3c[nH]nc3-c3cccs3)C2)O1 (stereo unspecified) | 8.105 | 97.71 and -10.44
CC(C)C(O)CNC(=O)Nc1cnn(C(C)C)c1 (stereo unspecified) | 26.75 | 17.32

For reference, 4 entries once more:

- CCCc1cnc(C)nc1N1CCC2(CCCO2)CC1 | Mtb cholesterol medium: -11.65% and -1.845%; Mtb glucose medium: -7.459%
- COc1ccccc1CC(=O)NS(=O)(=O)c1ccc(NC(C)=O)cc1 | Mtb cholesterol medium: -11.05%; Mtb glucose medium: -2.566%
- CN(CCCc1n[nH]c(N)c1C#N)C(=O)NC1CC1 | Mtb cholesterol medium: 11.85%; Mtb glucose medium: 3.356%
- O=C(CN1CCOCC1)N(c1ccccc1)c1ccccc1 | Mtb cholesterol medium: 7.539%; Mtb glucose medium: 5.328%